From article PMC5566117

Target: T1, GST-tagged recombinant Pld6 lacking the mitochondria localization sequence (GST-Pld6ΔMLS) (mouse) (UniProt Q5SWZ9)
T1 sequence: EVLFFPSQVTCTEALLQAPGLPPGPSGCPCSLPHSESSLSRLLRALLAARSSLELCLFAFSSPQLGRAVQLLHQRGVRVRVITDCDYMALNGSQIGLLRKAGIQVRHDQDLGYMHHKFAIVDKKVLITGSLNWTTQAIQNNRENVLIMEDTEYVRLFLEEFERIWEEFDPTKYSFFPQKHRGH
Assay: pull-down; in vitro GST pull-down: purified GST-Pld6ΔMLS and His-MBP-Gykl1ΔC29 mixed at 4 °C for 12 h, Glutathione Sepharose 4B 30 min, washed with 50 mM Tris-HCl pH 8.0, 300 mM NaCl; SDS-PAGE, Coomassie blue; both purified

binding: binds
Substance: MBP-tagged recombinant Gykl1 lacking the C-terminal 29 amino acids (MBP-Gykl1ΔC29) (from UniProt Q8C635) (domain or fragment)

These are yes or no findings as the source states them, for the method shown. Binding can be weak; no strength is given. Where a sequence is shown, tags or fusion partners need not be part of it.
